Data source: PubChem BioAssay AID1508588 (Peter MacCallum Cancer Centre, 2020)
This is a random part of about 18,000 reagents. 790 of all reagents (4.4%) count as active. 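Calls rest on a combination of fold-change classes in drug and vehicle arms, not all shown here.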

Purpose: 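Knock-downs boosting vemurafenib effects on melanoma cell growth or lactate release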 (primary screen)
Cell system: human WM266.4 melanoma cells (BRAF V600 mutant)
Reagents: siRNA pool against human genes, 40 nM
Timing: 96 h from transfection to read-out
Challenge: vemurafenib 300 nM (about IC25), added 48 h after transfection, for 48 h; comparison arm got DMSO vehicle only
Detection: 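Ratios to non-targeting siRNA for cell gain, counted as DAPI nuclei after minus before drug and averaged over two replicates, and for absorbance-read medium lactate per cell; both binned into fold-change classes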
Reading the numbers: cell gain with vemurafenib: higher = more cell gain than with non-targeting siRNA; lactate per cell with vemurafenib: higher = more lactate made per cell
Rule for the call: 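a knock-down counts as enhancing when its fold-change classes with vehicle and with vemurafenib, taken together, show a stronger drug effect on cell gain or lactate per cell; exact class pairs not stated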
Calls: active = enhances vemurafenib effect; inactive = no enhancement seen

With knock-down of DOC2A the results were cell gain with vemurafenib 0.66; lactate per cell with vemurafenib 1.44; inactive.
With knock-down of TRPV1, the record shows cell gain with vemurafenib 0.59; lactate per cell with vemurafenib 0.92; inactive.
For CP, the entry reads cell gain with vemurafenib 1.03; lactate per cell with vemurafenib 0.93; inactive.
Silencing of CSRP2 gave: cell gain with vemurafenib -0.04; lactate per cell with vemurafenib 1.75; inactive.
For SLC22A15, the values are cell gain with vemurafenib 0.6; lactate per cell with vemurafenib 1.34; inactive.
CIB1 showed cell gain with vemurafenib 0.15; lactate per cell with vemurafenib 2.44; inactive.
After knock-down of C1QL2, the record shows cell gain with vemurafenib 0.64; lactate per cell with vemurafenib 0.55; inactive.
Depletion of IPO13 gave: cell gain with vemurafenib 0.35; lactate per cell with vemurafenib 1.54; inactive.
Silencing of TFB2M came out at: cell gain with vemurafenib 0.77; lactate per cell with vemurafenib 1.64; inactive.
Against ABCG2 the deposit lists cell gain with vemurafenib 1.18; lactate per cell with vemurafenib 0.79; inactive.
With knock-down of ITGB5 the results were cell gain with vemurafenib 0.56; lactate per cell with vemurafenib 0.98; inactive.
With knock-down of CARMIL2 the results were cell gain with vemurafenib 0.21; lactate per cell with vemurafenib 0.93; inactive.
TPBG scored cell gain with vemurafenib 0.58; lactate per cell with vemurafenib 0.52; inactive.
Silencing of GUSB resulted in: cell gain with vemurafenib 1.17; lactate per cell with vemurafenib 0.99; inactive.
For MAGIX, the values are cell gain with vemurafenib 0.01; lactate per cell with vemurafenib 0.28; inactive.
Against NKX3-1, the entry reads cell gain with vemurafenib 0.66; lactate per cell with vemurafenib 1.38; inactive.
GCC2 gave cell gain with vemurafenib 0.49; lactate per cell with vemurafenib 0.84; inactive.
Knock-down of DPP3 resulted in: cell gain with vemurafenib 0.45; lactate per cell with vemurafenib 2.17; inactive.
For CPA6 the deposit lists cell gain with vemurafenib 0.86; lactate per cell with vemurafenib 1.16; inactive.
With knock-down of OR4F4 the results were cell gain with vemurafenib 1.1; lactate per cell with vemurafenib 0.66; inactive.
With knock-down of C1orf87, the record shows cell gain with vemurafenib 0.79; lactate per cell with vemurafenib 0.35; inactive.
After knock-down of EEF2, the screen gave cell gain with vemurafenib 0.62; lactate per cell with vemurafenib 0.28; inactive.
H3C8 gave cell gain with vemurafenib 0.53; lactate per cell with vemurafenib 1.12; inactive.
For H3C12, the entry reads cell gain with vemurafenib 0.32; lactate per cell with vemurafenib 1.11; inactive.
Depletion of POTEB3 came out at: cell gain with vemurafenib 0.77; lactate per cell with vemurafenib 1.02; inactive.
Depletion of PPP2R5B gave: cell gain with vemurafenib 0.67; lactate per cell with vemurafenib 0.86; inactive.
After knock-down of GAL3ST2, the record shows cell gain with vemurafenib 0.48; lactate per cell with vemurafenib 1.44; inactive.
Against MFSD2A, the values are cell gain with vemurafenib 0.89; lactate per cell with vemurafenib 0.49; active.
Against PRDX4 the deposit lists cell gain with vemurafenib 0.77; lactate per cell with vemurafenib 0.83; inactive.
Knock-down of TXNDC5 came out at: cell gain with vemurafenib 0.79; lactate per cell with vemurafenib 1.16; inactive.
Knock-down of PTPRA resulted in: cell gain with vemurafenib 0.83; lactate per cell with vemurafenib 0.84; inactive.
For RPRM the deposit lists cell gain with vemurafenib 1.17; lactate per cell with vemurafenib 1.15; inactive.
GGCX scored cell gain with vemurafenib 0.81; lactate per cell with vemurafenib 0.48; inactive.
With knock-down of EDDM3A, the record shows cell gain with vemurafenib 0.26; lactate per cell with vemurafenib 0.22; inactive.
MYH4 scored cell gain with vemurafenib 0.15; lactate per cell with vemurafenib 2.38; inactive.
After knock-down of FBXO46, the screen gave cell gain with vemurafenib 0.66; lactate per cell with vemurafenib 1.5; inactive.
Knock-down of HOXA10 resulted in: cell gain with vemurafenib 0.69; lactate per cell with vemurafenib 0.72; inactive.
Knock-down of DEFB113 resulted in: cell gain with vemurafenib 1.12; lactate per cell with vemurafenib 0.8; inactive.
Depletion of RTL9 came out at: cell gain with vemurafenib 0.75; lactate per cell with vemurafenib 0.71; inactive.
Silencing of SOCS2 came out at: cell gain with vemurafenib 0.59; lactate per cell with vemurafenib 0.6; inactive.

Reagents listed so far called active (1):
MFSD2A: cell gain with vemurafenib = 0.89; lactate per cell with vemurafenib = 0.49; activity call = active
